# Data: PubChem BioAssay (EPA / NIEHS)
# Sequences of proteins named here, by UniProt entry; tags and fusion partners are left off. A change or cut given only in a name is not applied to a line headed by its entry.
# UniProt Q96RI1: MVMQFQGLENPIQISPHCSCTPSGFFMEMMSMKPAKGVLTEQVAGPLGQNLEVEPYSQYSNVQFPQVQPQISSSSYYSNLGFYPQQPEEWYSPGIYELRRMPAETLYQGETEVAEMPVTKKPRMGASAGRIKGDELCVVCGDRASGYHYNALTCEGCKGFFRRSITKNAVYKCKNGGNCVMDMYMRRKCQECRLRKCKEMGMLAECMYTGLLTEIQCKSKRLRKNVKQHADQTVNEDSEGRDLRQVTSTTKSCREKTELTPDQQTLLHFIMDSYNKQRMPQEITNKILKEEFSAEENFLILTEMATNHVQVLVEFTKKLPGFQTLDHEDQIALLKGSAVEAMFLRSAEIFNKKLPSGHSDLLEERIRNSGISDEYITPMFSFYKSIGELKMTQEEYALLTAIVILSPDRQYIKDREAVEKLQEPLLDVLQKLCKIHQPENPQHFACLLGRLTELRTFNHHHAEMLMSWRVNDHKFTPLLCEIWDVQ
# The shares of active, inactive and inconclusive entries below differ from those in the screen. Where the call is inconclusive, the potency comes from a doubtful curve fit. Activity calls are given as the source filed them. The calls were made as follows: active = hit-call score of the fitted dose curve at least 0.9, where 1 is the maximum; inconclusive = response in the unintended direction; inactive = score below 0.9.
# Target: Bile acid receptor (Homo sapiens) (UniProt Q96RI1)
# Test: NVS_NR_hFXR_Antagonist: NovaScreen (NVS) Nuclear Receptor Binding Assay for human Farnesoid X Receptor Antagonism (FXR) (AID 2283350)
# Experimental: NVS_NR_hFXR_Antagonist is a biochemical, single-readout assay that uses extracted gene-proteins in a cell-free assay. Measurements were taken 1 hour after chemical dosing in a 384-well plate.NVS_NR_hFXR_Antagonist is one of one assay component(s) measured or calculated from the NVS_NR_hFXR_Antagonist assay. It is designed to make measurements of fluorescent resonance energy transfer, a form of binding reporter, as detected with fluorescent resonance energy transfer signals by Time-Resolved Fluorescence Resonance Energy Transfer (TR-FRET) technology.Data from the assay component NVS_NR_hFXR_Antagonist was analyzed into 1 assay endpoint. This assay endpoint, NVS_NR_hFXR_Antagonist, was analyzed in the positive analysis fitting direction relative to DMSO as the negative control and baseline of activity. Using a type of binding reporter, loss-of-signal activity can be used to understand changes in the binding as they relate to the gene NR1H4. Furthermore, this assay endpoint can be referred to as a primary readout, because the performed assay has only produced 1 assay endpoint. To generalize the intended target to other relatable targets, this assay endpoint is annotated to the nuclear receptor intended target family, where the subfamily is non-steroidal.
# Binding assays used specific radioligands (tritiated, iodinated) with non-radioactive competitive displacement ligands in agonist or antagonist protocols (as indicated) and various reference compounds and inhibitors to titrate specific binding to receptors and transporters. Most enzyme assays (CYPs, kinases, phosphatases, proteases, HDACs) used recombinant protein and specific substrates (fluorescence mostly, some colorimetric and radioactive) and inhibitors, followed by a biochemical separation of substrate and product. All assays for the biochemical HTS were initially run in duplicate at a single concentration (10 uM for CYP450 assays and 25 uM for all others). […] Each assay was run with positive and negative controls, and concurrent controls on every plate. The follow-up (secondary) screen tested active chemical-pairs in concentration series, as well as a few additional assays not tested in the primary screen, some selected negative inactives, and several cases re-run in the concentration series for confirmatory purposes.
SMILES,outcome,AC50
CCCCc1ccccc1,inactive,–
C=CC1(C)OC(=O)N(c2cc(Cl)cc(Cl)c2)C1=O (stereo not given),–,inconclusive: 1.76 µM
CCCN(CCC)c1c([N+](=O)[O-])cc(C(F)(F)F)cc1[N+](=O)[O-],–,inconclusive: 2.47 µM
CNC(=O)Oc1cccc2ccccc12,–,inconclusive: 25 µM
Cc1c(COC(=O)[C@@H]2[C@H](/C=C(\Cl)C(F)(F)F)C2(C)C)cccc1-c1ccccc1,–,inconclusive: 25 µM
C[C@]12CCC(=O)C=C1CC[C@@H]1[C@@H]2CC[C@]2(C)C(=O)CC[C@@H]12,–,active: 1.35 µM
CCNc1nc(Cl)nc(NCC)n1,–,inconclusive: 46.1 µM
N#CC(CCc1ccc(Cl)cc1)(Cn1cncn1)c1ccccc1 (stereo not given),–,inconclusive: 5.33 µM
CCc1ccc(C(=O)NN(C(=O)c2cc(C)cc(C)c2)C(C)(C)C)cc1,inactive,–
CN=C=S,–,inconclusive: 0.123 µM
CC1(c2ccc(Oc3ccccc3)cc2)OC(=O)N(Nc2ccccc2)C1=O (stereo not given),–,active: 10 µM
CCCSP(=O)(OCC)SCCC,inactive,–
CCC(CC)Nc1c([N+](=O)[O-])cc(C)c(C)c1[N+](=O)[O-],–,inconclusive: 0.523 µM
CN(C)C(=S)SSC(=S)N(C)C,–,active: 8.97 µM
O=S1OCC2C(CO1)C1(Cl)C(Cl)=C(Cl)C2(Cl)C1(Cl)Cl (stereo not given),–,inconclusive: 25 µM
CCCN(CCOc1c(Cl)cc(Cl)cc1Cl)C(=O)n1ccnc1,inactive,–
CNC(=O)ON=CC(C)(C)SC,–,inconclusive: 25 µM
O=[N+]([O-])/N=C1\NCCN1Cc1ccc(Cl)nc1,inactive,–
O=C1c2ccccc2C(=O)N1SC(Cl)(Cl)Cl,–,inconclusive: 25 µM
COc1nn(CSP(=S)(OC)OC)c(=O)s1,–,inconclusive: 25 µM

# One compound at a time (already shown):
# `CCCSP(=O)(OCC)SCCC` reads outcome: inactive
# `CCCN(CCC)c1c([N+](=O)[O-])cc(C(F)(F)F)cc1[N+](=O)[O-]` reads AC50: inconclusive: 2.47 µM
